In paper doi:10.1101/2020.11.30.405449 one finds binding data, which are given here for 3 substances.

Protein sequences, listed by entry. Tags and fused reporters are not part of them.
UniProt Q9UPY3: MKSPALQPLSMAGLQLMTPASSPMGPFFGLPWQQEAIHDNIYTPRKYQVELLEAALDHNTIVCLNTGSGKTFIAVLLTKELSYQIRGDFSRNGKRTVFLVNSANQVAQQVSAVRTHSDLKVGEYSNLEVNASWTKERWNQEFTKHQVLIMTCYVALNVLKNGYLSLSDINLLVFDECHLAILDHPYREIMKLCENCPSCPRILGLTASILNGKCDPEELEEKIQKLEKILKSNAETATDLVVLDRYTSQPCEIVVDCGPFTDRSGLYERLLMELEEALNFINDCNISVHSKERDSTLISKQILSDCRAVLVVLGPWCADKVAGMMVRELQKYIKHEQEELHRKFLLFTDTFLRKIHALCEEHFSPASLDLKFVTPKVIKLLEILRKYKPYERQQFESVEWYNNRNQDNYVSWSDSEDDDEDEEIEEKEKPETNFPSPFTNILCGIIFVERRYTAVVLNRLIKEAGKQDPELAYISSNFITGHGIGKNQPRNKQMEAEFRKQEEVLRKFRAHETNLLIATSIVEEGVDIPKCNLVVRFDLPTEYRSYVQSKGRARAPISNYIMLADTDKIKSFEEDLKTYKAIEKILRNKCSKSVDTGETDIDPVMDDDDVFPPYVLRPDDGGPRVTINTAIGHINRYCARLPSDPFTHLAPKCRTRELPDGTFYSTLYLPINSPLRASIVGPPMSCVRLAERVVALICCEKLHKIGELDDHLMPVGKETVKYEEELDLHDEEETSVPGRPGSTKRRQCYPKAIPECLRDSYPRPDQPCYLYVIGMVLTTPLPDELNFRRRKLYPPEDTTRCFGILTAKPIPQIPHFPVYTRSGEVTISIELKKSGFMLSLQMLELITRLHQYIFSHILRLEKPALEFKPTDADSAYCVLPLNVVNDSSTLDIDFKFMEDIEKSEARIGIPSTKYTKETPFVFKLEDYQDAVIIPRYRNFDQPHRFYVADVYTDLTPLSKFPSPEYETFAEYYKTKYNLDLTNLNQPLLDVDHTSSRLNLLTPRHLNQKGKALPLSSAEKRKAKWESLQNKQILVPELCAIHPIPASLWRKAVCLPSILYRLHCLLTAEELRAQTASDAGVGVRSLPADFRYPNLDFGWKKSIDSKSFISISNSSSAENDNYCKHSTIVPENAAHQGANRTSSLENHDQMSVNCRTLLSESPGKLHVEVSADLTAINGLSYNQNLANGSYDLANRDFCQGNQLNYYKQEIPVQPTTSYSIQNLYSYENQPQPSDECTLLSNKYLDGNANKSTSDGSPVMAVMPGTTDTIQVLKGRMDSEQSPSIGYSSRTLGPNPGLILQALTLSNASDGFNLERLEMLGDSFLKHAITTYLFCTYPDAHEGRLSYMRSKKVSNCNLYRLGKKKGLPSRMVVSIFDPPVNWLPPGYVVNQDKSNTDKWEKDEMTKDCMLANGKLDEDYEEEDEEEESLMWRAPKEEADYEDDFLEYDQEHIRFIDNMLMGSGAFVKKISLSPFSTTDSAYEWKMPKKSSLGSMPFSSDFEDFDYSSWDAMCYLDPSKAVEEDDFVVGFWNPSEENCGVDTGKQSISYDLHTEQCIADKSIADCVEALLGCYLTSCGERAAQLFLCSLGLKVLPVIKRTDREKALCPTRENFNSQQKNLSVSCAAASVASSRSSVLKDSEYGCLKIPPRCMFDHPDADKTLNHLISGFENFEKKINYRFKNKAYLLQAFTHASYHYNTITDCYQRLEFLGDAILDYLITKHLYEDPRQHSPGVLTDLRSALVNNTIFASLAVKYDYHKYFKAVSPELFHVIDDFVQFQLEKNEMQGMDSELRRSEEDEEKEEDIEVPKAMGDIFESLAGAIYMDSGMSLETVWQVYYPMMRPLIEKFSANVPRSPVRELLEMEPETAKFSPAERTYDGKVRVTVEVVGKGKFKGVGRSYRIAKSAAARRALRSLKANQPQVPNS
UniProt Q9UKV8: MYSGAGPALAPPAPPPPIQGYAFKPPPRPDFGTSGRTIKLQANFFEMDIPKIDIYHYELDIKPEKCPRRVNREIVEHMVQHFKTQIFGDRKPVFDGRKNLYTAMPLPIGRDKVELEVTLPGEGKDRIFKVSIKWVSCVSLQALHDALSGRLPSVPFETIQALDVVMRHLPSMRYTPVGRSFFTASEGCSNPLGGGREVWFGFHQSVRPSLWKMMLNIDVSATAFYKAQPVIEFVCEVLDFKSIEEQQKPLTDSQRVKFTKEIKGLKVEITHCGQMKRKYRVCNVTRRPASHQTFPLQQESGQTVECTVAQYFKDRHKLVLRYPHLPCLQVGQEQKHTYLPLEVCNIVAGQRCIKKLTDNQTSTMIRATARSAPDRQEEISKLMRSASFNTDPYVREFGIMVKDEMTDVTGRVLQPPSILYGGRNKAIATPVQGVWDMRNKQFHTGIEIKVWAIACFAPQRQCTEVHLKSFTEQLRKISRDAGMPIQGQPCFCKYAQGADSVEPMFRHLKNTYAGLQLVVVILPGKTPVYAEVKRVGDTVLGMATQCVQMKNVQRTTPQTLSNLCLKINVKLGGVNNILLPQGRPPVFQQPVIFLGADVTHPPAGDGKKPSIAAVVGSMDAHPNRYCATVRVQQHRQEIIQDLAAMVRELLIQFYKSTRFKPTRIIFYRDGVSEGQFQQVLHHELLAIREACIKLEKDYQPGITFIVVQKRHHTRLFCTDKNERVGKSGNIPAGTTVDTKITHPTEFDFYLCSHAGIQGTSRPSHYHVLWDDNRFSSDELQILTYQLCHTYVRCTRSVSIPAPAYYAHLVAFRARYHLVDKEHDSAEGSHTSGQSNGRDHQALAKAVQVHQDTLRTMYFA
UniProt Q8IZH2: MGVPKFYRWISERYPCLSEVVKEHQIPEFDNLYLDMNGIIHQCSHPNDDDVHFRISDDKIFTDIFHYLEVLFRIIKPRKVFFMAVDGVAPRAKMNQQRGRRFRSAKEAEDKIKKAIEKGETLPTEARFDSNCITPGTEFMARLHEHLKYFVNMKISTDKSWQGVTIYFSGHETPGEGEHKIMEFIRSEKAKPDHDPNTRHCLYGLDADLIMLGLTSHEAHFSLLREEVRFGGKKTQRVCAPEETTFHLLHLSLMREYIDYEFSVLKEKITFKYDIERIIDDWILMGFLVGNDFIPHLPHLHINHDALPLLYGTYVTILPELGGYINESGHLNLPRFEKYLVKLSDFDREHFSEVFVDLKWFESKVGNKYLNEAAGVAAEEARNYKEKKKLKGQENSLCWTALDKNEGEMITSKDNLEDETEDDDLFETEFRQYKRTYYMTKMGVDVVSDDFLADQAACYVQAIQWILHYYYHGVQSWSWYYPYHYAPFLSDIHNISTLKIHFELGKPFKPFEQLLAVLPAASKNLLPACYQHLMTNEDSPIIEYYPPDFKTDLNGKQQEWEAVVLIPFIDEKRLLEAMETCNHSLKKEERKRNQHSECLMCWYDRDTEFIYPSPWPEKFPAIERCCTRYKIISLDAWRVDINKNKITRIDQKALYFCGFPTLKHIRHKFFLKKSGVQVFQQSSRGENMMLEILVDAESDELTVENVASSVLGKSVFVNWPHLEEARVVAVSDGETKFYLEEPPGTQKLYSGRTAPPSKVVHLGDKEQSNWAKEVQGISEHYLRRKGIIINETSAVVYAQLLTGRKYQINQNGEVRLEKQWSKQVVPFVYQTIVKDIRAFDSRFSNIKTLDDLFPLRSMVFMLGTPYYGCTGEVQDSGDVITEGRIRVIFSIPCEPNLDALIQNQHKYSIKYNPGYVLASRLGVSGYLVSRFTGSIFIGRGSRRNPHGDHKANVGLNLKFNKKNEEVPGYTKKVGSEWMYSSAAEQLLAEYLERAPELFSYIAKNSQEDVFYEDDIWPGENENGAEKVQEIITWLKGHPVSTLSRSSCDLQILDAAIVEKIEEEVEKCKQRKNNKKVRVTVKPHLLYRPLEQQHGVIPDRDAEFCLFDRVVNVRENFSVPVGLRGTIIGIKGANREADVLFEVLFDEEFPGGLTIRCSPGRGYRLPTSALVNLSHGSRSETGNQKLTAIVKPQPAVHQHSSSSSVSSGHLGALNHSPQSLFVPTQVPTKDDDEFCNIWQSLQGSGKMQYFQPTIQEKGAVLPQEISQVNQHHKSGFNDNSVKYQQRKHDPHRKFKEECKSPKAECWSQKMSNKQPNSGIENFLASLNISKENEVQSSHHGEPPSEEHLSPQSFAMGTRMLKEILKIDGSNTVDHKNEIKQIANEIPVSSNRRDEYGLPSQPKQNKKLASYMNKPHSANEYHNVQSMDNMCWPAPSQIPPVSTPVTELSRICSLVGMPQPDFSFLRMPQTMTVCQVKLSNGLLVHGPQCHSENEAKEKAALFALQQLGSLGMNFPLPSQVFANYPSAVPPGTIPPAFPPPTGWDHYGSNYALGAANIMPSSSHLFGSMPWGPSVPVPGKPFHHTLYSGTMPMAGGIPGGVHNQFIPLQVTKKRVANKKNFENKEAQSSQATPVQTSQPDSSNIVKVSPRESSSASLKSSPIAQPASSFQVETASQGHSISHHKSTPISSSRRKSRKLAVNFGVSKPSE

No constants are given. Whether binding was seen depends on the method and setting. In cells and extracts the contact can be indirect. Some entries that bind do so weakly or less than the wild type.

Common to all, as to assay: co-IP
In assay [1] the target is NH-Dicer1, expressed in HEK293 cells (UniProt Q9UPY3).
The target in assay [2] is Dicer1, endogenous in Huh7 cells (human (endogenous in Huh7)) (UniProt Q9UPY3).
For assay [3], the target named is NH-Dicer1 (HA-tagged Dicer1), transiently expressed in Huh7 cells (UniProt Q9UPY3).
Assay [4] deals with FA-Ago2, transiently expressed in Huh7 cells (UniProt Q9UKV8).

As to “Ago2, endogenous in HEK293 cells (from UniProt Q9UKV8 1-859)”, the binding entry in assay [1] was “binds”. In the case of “Ago2, endogenous in Huh7 cells (from UniProt Q9UKV8 1-859)”, the binding entry in assay [2] and in assay [3] was “binds” throughout. Turning to “Xrn1, endogenous in Huh7 cells (from UniProt Q8IZH2 1-1706) (enzyme)”, the binding result in assay [4] is on record as “binds”.
